Measurements reported in PubChem BioAssay AID1259308 (NCATS, 2017)
Purpose: 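Knock-downs that increase output of a recombinant reporter protein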 (primary screen). Cell system: human HEK293 embryonic kidney cells stably expressing firefly luciferase (HEK-CMV-Luc2-Hygro). Reagents: single siRNA against human genes, 0.8 pmol siRNA per well. Timing: 72 h. Measurement: 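Reporter luminescence and viable-cell signal on separate replicate plates, given as percent of non-targeting control and median/MAD z-scores, plus per-cell luciferase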. Scale: total luciferase, z-score and total luciferase, % of control: higher = more reporter protein produced. Call rule: 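An siRNA counts as active if its total luciferase robust z-score exceeds 3; genes with two or more such siRNAs out of three were retested with fresh siRNAs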. Calls: active = raised luciferase; inactive = no rise.
In all, the deposit lists about 59,000 reagents; below is a part drawn at random. About 1,510 of all reagents (2.6%) were called active. 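Calls use total luciferase alone and ignore viability, so some active siRNAs may act by altering cell number.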 Entries without a mark were called inactive. Reagents against one gene are numbered here. Not all columns of the deposit are shown.

Knock-down of VN2R17P (vomeronasal 2 receptor 17, pseudogene) #1 gave: total luciferase, z-score 1.65; total luciferase, % of control 115. With knock-down of VN2R17P (vomeronasal 2 receptor 17, pseudogene) #2, the record shows total luciferase, z-score 0.0599; total luciferase, % of control 83.1. After knock-down of VN2R17P (vomeronasal 2 receptor 17, pseudogene) #3 the results were total luciferase, z-score 1.14; total luciferase, % of control 104. For COG6 (component of oligomeric golgi complex 6) #1, the entry reads total luciferase, z-score -1.72; total luciferase, % of control 47.6. With knock-down of COG6 (component of oligomeric golgi complex 6) #2 the results were total luciferase, z-score -0.0314; total luciferase, % of control 81.3. Against COG6 (component of oligomeric golgi complex 6) #3, the entry reads total luciferase, z-score 1.97; total luciferase, % of control 121.

ZNF507 (zinc finger protein 507) #1 scored total luciferase, z-score 0.421; total luciferase, % of control 90.3. Against ZNF507 (zinc finger protein 507) #2, the entry reads total luciferase, z-score 0.824; total luciferase, % of control 98.3. After knock-down of ZNF507 (zinc finger protein 507) #3, the record shows total luciferase, z-score -0.373; total luciferase, % of control 74.5.

Targets above whose gene name starts with C or c:
COG6 (component of oligomeric golgi complex 6) #1 | total luciferase, z-score: -1.72; total luciferase, % of control: 47.6
COG6 (component of oligomeric golgi complex 6) #2 | total luciferase, z-score: -0.0314; total luciferase, % of control: 81.3
COG6 (component of oligomeric golgi complex 6) #3 | total luciferase, z-score: 1.97; total luciferase, % of control: 121

The list goes on.
With knock-down of AFDN (afadin, adherens junction formation factor) #1 the results were total luciferase, z-score -0.415; total luciferase, % of control 73.6. After knock-down of AFDN (afadin, adherens junction formation factor) #2, the screen gave total luciferase, z-score 0.0545; total luciferase, % of control 83. With knock-down of AFDN (afadin, adherens junction formation factor) #3, the record shows total luciferase, z-score 0.141; total luciferase, % of control 84.7. After knock-down of AFDN (afadin, adherens junction formation factor) #4, the record shows total luciferase, z-score 0.265; total luciferase, % of control 87.2. Knock-down of AFDN (afadin, adherens junction formation factor) #5 resulted in: total luciferase, z-score -1.71; total luciferase, % of control 48. With knock-down of AFDN (afadin, adherens junction formation factor) #6 the results were total luciferase, z-score -0.195; total luciferase, % of control 78.

Depletion of FRAT2 (FRAT regulator of Wnt signaling pathway 2) #1 came out at: total luciferase, z-score 0.696; total luciferase, % of control 95.7. For FRAT2 (FRAT regulator of Wnt signaling pathway 2) #2, the values are total luciferase, z-score 2.15; total luciferase, % of control 125. After knock-down of FRAT2 (FRAT regulator of Wnt signaling pathway 2) #3 the results were total luciferase, z-score 2.29; total luciferase, % of control 127. After knock-down of WNT5A (Wnt family member 5A) #1, the screen gave total luciferase, z-score -1.18; total luciferase, % of control 58.5. Silencing of WNT5A (Wnt family member 5A) #2 came out at: total luciferase, z-score -1.3; total luciferase, % of control 56. Knock-down of WNT5A (Wnt family member 5A) #3 resulted in: total luciferase, z-score 0.0206; total luciferase, % of control 82.3.
